These results are taken from paper PMC10163288.

The chains are these.
B1: il10ra_site1_normal_mot_HHH_b2_06090_af2_000000001_0001_1_19_H_._HHH_b1_04907_af2_0001_0000300025_0000001_0 (protein)
chain: SSSSDERQRVLRLLVEILRLILRGDHEEARELLEEVERLAEELGDEALRKAVEIYEEALKSSSSS
B2: il10ra_site1_sap_23_mot_HHH_b1_08411_af2_000000053_0001_1_20_H_._HHH_b1_02517_0001_0000100005_0000002_0_0001 (protein)
chain: SSSSSDADEVFRRVEELLRRVMHIEDEEEAEKLLEEAKELAEEAGNQLLKWAIEYVAKVHSSSSS
B3: il10ra_site1_sap_20_mot_HHH_b1_03230_000000248_0001_1_19_H_._HHH_b2_06429_af2_0001_0000500013_0000001_0_0001 (protein)
chain: SSSSDEEEELVEAAIRLAKQLLEWGNPEAARLIIEAAEMLVEELGNEELQEKLEEVREELNSSSS
B4: il10ra_site1_sap_24_mot_HHH_b1_03262_af2_000000181_0001_43_57_H_._HHH_b2_01829_0001_0000300024_0000001_0_0001 (protein)
chain: SSSSSSEEEEEVEELLEEAKQIPDPRERIEVLLRAVRIAIQGQNPELLRLVWRVIKELGKSSSSS
B5: il10ra_site1_normal_mot_HHH_b1_06912_af2_000000235_0001_1_15_H_._HHH_b2_00723_af2_0001_0000300016_0000001_0 (protein)
chain: SSSSSEADRVYKLIRRVLELLYNGDDEEAEELLREAEELVEEANNFVFKFALRVLRERLEESSSS
B6: il10ra_site1_sap_27_mot_9c3e5e2d2b9ffb70dc788f52fbfab6d5_0001_1_000000198_0001_1_14_H_._05ca327611f5605f0dd8494b449afcbf_0001_1_af2_0001_0000500019_0000003_0_00 … (protein)
chain: SSSSSEELYRLSRKAMELLREGDKEEAREVVEKAEELAEEENSPVFLMNIRFVLEDIERTSSSSS
B7: il10ra_site1_sap_29_mot_86ab9fa9a2f9995d0bea9dc24d8c997f_0001_1_af2_000000014_0001_16_33_H_._66c2fca85847babee3b8944584cfd08f_0001_1_0001_0000600028_0000001_0_0 … (protein)
chain: SSSSSHAEEIVRITLEMAEEAKEEGDEQLFRALLWFARIAAEERNDPEAERLVEEFEEEFSSSSS
B8: il10ra_site1_sap_25_mot_HHH_b1_01513_af2_000000021_0001_1_16_H_._HHH_b2_07812_af2_0001_0000500006_0000001_0_0001_af2pred_0001 (protein)
chain: SSSSDEEAREYHREIQELMEKGNPEKAAKLLLELSKLAMRKGDEEMVRLVHELVRLLLELNSSSS
B9: il10ra_site1_normal_mot_HHH_b2_06497_000000202_0001_1_20_H_._HHH_b2_00092_af2_0001_0000800020_0000001_0_af2pred_0001 (protein)
chain: SSSSSDRARLSTRVYELLRKALRIDDEEEVEELLKEAEELARELGNRILEHAIEAAKRALSSSSS
B10: il10ra_site1_sap_23_mot_HHH_b1_03754_af2_000000016_0001_40_56_H_._HHH_b2_04696_0001_0000300035_0000001_0_0001 (protein)
chain: SSSSSEEIQQVLRLSLEAFRLALRGNPEEARKLLEEAEELAEEANDPRMLRVIRDLLRALSSSSS
B11: il10ra_site1_normal_mot_HHH_b1_05357_000000034_0001_23_39_H_._HHH_b2_02364_0002_0000100005_0000001_0 (protein)
chain: SSSSSDEEDREEVERLLEEAKHIEDRQRVSHLMIQAYAVAHNANDPELEELVREVAKELVSSSSS
B12: il10ra_site1_sap_13_mot_HHH_b2_02116_af2_000000165_0001_41_55_H_._HHH_b1_01304_0001_0000300021_0000001_0_0001 (protein)
chain: SSSSDREELLEEAWRLLREALELAQTDPEEAREVAEEAEEIAKEANSWAILISIRFFLKDLSSSS
B13: il10ra_site1_sap_12_mot_HHH_b1_05357_000000034_0001_23_39_H_._HHH_b1_01533_af2_0001_0000200008_0000002_0_0001_af2pred_dldesign_0_af2pred (protein)
chain: SSSSSELEAFLERKLAALEQLAAMGEKEEFEKLANYIKAVAKALNNPEVIARVDEIEAKLKSSSS
B14: il10ra_site1_normal_mot_HHH_b1_05021_af2_000000076_0001_42_56_H_._HHH_b2_06583_af2_0001_0000600010_0000001_0_af2pred_dldesign_0_af2pred (protein)
chain: SSSSSSAELTEKAIELLREASELEDKEKRKELLAKAKELAEKAKNELLLEAIAYLESQLSSSSSS
B15: il10ra_site1_sap_31_mot_HHH_b1_05860_000000142_0001_1_19_H_._HHH_b1_04567_af2_0001_0000500066_0000002_0_0001_af2pred_0001 (protein)
chain: NLIERVRELAKKADDPKLLKLLLLLVHAIFRGDEELVERVLELLEQAREEGDPRYLEEAEELLRK
B16: il10ra_site1_normal_mot_HHH_b1_02080_af2_000000254_0001_23_39_H_._HHH_b1_03859_0001_0000500007_0000001_0 (protein)
chain: SSSSDQEILEEASRLYLRASEAIEKGDEELLEKLLEELEELAEELNDPRIRLTLQFLKAIGSSSS
B17: il10ra_site1_normal_mot_HHH_b1_01886_000000262_0001_1_18_H_._HHH_b2_02763_0001_0000400033_0000001_1 (protein)
chain: SSSSTLEWSVEFVLRAAEILAKRGDPEHAKELLRRLLEHLEEAGNEELLEEVEELLRELGSSSSS
B18: il10ra_site1_normal_mot_HHH_b2_06786_000000018_0001_41_57_H_._HHH_b1_07352_af2_0001_0000200014_0000001_0 (protein)
chain: SSSSNDVARIVAEAVRLAFRLSDEETLQELWKLFKEYIKEGDERYKERLEELLEELEELLSSSSS

The other results are listed elsewhere or left out.

In this assay the target is il10ra, Q13651. Description: yeast display titration.
With B1, the “apparent Kd” value was “inactive: no binding seen”.
Next, B2: “inactive: no binding seen”; B3: “inactive: no binding seen”.
Next, B4: “inactive: no binding seen”; B5: “inactive: no binding seen”.
For the molecule B6, the “apparent Kd” value was “inactive: no binding seen”.
Next, B7: “inactive: no binding seen”; B8: “inactive: no binding seen”.
Next, B9: “inactive: no binding seen”.
With B10, the “apparent Kd” value was “inactive: no binding seen”.
Take B11: the “apparent Kd” value is “inactive: no binding seen”.
Next, B12: “inactive: no binding seen”; B13: “inactive: no binding seen”; B14: “inactive: no binding seen”.
For B15 the value was “inactive: no binding seen”.
For B16, the “apparent Kd” value was “inactive: no binding seen”.
For B17 the value was “inactive: no binding seen”; for B18, “inactive: no binding seen”.
